From article PMC11189495
Results are given in words; binding and its absence hold for the method and conditions named. Binding seen in cells or lysates may run through a third protein. Some entries that bind do so weakly or less than the wild type.

Amino acid sequences for entries named in this document (tags omitted). Residues count along the entry.
UniProt O43699, residues 27-453: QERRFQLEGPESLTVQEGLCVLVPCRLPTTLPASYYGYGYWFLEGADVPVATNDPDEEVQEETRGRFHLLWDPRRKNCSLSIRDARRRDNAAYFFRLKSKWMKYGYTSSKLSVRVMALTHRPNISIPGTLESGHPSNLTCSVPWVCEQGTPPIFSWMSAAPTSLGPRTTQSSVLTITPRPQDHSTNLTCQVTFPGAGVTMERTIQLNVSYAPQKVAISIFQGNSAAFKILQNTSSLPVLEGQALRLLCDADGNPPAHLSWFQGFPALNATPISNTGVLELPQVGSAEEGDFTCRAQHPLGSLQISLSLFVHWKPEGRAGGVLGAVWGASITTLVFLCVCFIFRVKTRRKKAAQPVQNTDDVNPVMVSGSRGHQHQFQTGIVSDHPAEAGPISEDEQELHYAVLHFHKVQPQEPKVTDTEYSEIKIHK
UniProt P60953: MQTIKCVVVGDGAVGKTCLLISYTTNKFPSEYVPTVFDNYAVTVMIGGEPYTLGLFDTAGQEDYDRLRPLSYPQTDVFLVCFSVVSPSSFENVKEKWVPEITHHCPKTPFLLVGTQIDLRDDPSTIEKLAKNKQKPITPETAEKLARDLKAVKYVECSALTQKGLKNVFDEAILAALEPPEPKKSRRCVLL
UniProt Q8NF50: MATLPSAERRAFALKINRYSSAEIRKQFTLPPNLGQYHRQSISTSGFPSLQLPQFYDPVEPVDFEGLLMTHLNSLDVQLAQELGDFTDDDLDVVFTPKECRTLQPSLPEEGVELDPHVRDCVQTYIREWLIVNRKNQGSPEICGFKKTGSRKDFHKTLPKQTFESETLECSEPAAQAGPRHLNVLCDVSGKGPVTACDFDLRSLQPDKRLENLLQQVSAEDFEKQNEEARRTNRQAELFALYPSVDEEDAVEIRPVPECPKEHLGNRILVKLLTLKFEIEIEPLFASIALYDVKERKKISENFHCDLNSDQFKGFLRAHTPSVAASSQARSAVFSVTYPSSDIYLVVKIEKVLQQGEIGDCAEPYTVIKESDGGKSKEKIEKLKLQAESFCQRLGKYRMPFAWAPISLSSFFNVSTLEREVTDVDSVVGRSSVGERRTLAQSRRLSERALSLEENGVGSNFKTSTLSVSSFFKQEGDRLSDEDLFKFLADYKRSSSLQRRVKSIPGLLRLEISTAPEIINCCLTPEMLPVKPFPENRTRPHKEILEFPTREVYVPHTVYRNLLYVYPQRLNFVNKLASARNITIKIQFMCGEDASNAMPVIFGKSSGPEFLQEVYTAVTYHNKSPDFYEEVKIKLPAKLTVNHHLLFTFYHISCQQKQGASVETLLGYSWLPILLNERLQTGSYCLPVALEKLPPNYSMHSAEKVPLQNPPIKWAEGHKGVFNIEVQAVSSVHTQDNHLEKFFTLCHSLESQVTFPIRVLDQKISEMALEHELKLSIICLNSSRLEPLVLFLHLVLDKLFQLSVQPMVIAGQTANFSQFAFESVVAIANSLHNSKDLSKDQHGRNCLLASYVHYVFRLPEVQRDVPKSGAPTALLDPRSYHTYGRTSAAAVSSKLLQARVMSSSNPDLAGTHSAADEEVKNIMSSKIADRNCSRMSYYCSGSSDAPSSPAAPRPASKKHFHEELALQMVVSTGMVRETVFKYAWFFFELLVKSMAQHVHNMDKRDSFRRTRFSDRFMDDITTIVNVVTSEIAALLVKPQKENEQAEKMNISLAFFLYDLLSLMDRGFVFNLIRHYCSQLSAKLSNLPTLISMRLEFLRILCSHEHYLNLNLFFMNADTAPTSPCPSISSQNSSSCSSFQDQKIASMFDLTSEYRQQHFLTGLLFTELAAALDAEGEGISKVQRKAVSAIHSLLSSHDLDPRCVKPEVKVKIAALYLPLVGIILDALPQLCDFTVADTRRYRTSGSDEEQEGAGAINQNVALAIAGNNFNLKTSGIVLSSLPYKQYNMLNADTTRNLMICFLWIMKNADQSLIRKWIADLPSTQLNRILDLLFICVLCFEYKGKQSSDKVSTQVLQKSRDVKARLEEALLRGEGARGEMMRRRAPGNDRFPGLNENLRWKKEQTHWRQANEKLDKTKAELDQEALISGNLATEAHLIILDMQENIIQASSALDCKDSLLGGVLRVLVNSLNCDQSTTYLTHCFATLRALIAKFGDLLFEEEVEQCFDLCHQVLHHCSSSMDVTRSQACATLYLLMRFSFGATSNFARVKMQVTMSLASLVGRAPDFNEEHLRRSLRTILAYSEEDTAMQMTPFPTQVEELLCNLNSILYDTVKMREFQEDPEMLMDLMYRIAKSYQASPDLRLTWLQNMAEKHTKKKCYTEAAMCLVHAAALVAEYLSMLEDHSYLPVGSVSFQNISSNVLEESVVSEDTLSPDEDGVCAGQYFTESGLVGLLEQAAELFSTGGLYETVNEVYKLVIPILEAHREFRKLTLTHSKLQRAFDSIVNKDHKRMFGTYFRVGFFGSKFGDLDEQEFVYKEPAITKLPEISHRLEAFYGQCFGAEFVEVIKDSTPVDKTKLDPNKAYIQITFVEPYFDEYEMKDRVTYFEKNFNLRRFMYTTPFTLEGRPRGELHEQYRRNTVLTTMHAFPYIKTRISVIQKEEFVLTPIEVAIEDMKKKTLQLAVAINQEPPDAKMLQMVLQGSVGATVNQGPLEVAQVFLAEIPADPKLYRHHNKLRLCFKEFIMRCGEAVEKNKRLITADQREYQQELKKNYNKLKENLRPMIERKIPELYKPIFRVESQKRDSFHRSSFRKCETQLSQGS
UniProt P42768: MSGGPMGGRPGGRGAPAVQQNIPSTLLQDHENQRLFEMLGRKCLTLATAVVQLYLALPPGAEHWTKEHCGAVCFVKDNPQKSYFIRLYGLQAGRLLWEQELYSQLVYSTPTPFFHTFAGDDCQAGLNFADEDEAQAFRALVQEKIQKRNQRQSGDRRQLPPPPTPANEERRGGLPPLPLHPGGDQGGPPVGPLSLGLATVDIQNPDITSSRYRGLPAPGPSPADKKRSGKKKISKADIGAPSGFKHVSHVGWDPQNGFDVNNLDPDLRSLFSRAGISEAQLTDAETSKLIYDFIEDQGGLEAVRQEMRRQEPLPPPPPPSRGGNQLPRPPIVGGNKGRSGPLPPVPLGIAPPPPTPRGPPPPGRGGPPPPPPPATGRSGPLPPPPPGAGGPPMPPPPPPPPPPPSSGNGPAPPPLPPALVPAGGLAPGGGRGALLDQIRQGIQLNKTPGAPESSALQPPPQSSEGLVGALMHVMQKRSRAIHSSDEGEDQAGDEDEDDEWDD

Tests used:
[1] = molecular target: Siglec-6 (human (endogenous in MEC1-002 and primary B-CLL cells)) (UniProt O43699); assay: co-IP; lysates of MEC1-002 or primary CD19+ CD5+ B-CLL cells (3 patients); Dynabeads Protein G kit; anti-human Siglec-6 antibody (clone 2G6) or mouse IgG2b isotype control; immunoblot with DOCK8 antibody (EPR1251)
[2] = molecular target: GTP-bound Cdc42 (human (endogenous in MEC1-002)) (UniProt P60953); assay: pull-down; Cdc42 activation assay kit (Abcam, ab211163) used to pull down GTP-bound Cdc42 from MEC1-002 cells treated with 6 ug sTn for 1 min; GTP-Cdc42 and WASP detected by immunoblot; also cells blocked with 10 ug anti-Siglec-6 mAb JML-1 for 30 min, Siglec-6 KO and DOCK8 KO cells

Substance	binding [1]	binding [2]
DOCK8 (from UniProt Q8NF50 1-2099)	binds	–
WASP protein (from UniProt P42768 1-502)	–	binds
